From paper PMC7862700
Some of the results follow. The source does not settle which construct or isoform was used.

The sequences below were run against T1, ETS1 (UniProt P14921) (assay: DAPPL (digital affinity profiling via proximity ligation, sequencing)). Conditions: 10 mM Tris-HCl pH 7.5, 50 mM NaCl, 1 mM DTT, 4% glycerol, room temperature, 30 min; GST-TFs on glutathione beads, 16-mer random dsDNA library, 0.1% …; high values mean tight binding; double strand, one strand shown; scale: fold enrichment (6-mer frequency, TF over GST control).
T1 sequence: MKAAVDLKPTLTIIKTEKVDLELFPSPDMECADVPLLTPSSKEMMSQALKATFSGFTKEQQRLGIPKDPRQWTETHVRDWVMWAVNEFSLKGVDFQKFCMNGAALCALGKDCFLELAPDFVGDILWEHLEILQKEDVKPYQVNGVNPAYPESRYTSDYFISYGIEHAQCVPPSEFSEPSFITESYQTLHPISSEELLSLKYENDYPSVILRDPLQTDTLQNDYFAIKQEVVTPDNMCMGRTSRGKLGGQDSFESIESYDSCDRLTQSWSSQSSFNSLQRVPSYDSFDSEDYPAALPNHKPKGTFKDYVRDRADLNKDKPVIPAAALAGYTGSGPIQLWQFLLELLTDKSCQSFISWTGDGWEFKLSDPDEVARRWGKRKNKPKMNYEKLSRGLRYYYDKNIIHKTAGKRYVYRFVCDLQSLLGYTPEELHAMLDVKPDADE

Sequence	binding signal
ACCTGG	1.25
AAATAC	1.48
CTTCGT	1.43
ATTACA	1.13
TGGACA	0.99
ACACTC	1.12
CTGTGC	1.25
TTTGGG	1.32
TTTACC	1.28
ACGACG	1.2
CGTTTC	1.67
AGATGC	1
ACGATA	1.17
ATTGGC	1.16
AGTCCC	1.03
CCCCCC	1.05
TTGCTT	1.28
TTAAAT	1.13
ACCGCA	1.1
TGCTCG	1.3

Sequence	binding signal
GTTCTC	1.37
CTTGGC	1.22
AATTAC	1.23
TCACGT	1.26
TAACTT	1.37
AAAGGG	1.2
CTCGCA	1.35
GCACCT	1.01
CTGAAA	1.09
CCTCAA	1.39
ACGTTT	1.25
GATCCA	1.03
AAGTTA	1.21
CTGTCT	1.42
CCTTTG	1.32
CCAACA	1.02
ACGCTT	1.39
CCCCAC	1.24
TCACTC	1.18
TCCCGA	1.26

Reprinted at random: 3 entries already listed.
Sequence	binding signal
TAACTT	1.37
CTGTGC	1.25
TGGACA	0.99
